Measured values: US20240279325A1
No constants are given. Whether binding was seen depends on the method and setting. Some entries that bind do so weakly or less than the wild type.

The chains behind the UniProt entries cited, without tags or fusion partners. Residues count along the entry.
UniProt P05231, residues 30-212: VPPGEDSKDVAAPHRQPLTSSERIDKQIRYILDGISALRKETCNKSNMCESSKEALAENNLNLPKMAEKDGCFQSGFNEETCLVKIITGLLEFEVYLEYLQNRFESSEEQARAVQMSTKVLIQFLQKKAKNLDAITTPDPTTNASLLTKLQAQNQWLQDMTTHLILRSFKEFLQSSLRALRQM

Molecular target: IL-6 (UniProt P05231)
Assay: phage ELISA, biotin-labeled IL-6 on StreptaWell plate, […] CaCl2 or 1 mM EDTA

B1: 6KC4-1 #85 (Fab, V domains shown)
VH: EVQLVESGGGLVQPGGSLRLSCAASGFTFSSYEMNWVRQAPGKGLEWVSYISSSGSTIYYADSVKGRFTISRDNAKNSLYLQMNSLRAEDTAVYYCARDAPYYYDSSGYTDAFDIWGQGTMVTVSS
VL: EIVLTQSPATLSLSPGERATLSCRASQSVSSYLAWYQQKPGQAPRLLIFDASNRAAGIPARFSGSGSGTDFTLTISSLEPEDFAVYYCQQFDKWVTFGGGTTVEIR
binding: binds
